Test results: the supplement of paper PMC10849652
The list shows a part of the results.

Chains of the proteins cited; added tags and fusions are not shown. Lines headed by an entry give the natural chain unless they say otherwise; changes in a name come on top.
UniProt Q7L273: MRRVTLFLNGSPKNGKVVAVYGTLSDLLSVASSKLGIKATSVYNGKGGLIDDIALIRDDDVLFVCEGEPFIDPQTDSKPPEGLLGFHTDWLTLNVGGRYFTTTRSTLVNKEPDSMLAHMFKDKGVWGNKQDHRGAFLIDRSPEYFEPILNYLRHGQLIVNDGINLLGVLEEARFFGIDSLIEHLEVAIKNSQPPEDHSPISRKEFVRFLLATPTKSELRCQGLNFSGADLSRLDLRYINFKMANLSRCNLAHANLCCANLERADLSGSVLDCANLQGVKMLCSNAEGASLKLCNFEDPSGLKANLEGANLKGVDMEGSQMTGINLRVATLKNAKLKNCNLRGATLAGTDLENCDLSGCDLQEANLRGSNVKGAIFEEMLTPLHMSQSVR
UniProt Q96SI1: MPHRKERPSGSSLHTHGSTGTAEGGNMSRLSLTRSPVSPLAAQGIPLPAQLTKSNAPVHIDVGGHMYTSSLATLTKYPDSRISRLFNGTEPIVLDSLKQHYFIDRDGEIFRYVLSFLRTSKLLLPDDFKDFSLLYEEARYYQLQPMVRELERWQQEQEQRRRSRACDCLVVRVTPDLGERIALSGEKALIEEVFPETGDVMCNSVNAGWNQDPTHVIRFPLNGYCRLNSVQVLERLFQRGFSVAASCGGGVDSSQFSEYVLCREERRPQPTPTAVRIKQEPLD
UniProt P01042: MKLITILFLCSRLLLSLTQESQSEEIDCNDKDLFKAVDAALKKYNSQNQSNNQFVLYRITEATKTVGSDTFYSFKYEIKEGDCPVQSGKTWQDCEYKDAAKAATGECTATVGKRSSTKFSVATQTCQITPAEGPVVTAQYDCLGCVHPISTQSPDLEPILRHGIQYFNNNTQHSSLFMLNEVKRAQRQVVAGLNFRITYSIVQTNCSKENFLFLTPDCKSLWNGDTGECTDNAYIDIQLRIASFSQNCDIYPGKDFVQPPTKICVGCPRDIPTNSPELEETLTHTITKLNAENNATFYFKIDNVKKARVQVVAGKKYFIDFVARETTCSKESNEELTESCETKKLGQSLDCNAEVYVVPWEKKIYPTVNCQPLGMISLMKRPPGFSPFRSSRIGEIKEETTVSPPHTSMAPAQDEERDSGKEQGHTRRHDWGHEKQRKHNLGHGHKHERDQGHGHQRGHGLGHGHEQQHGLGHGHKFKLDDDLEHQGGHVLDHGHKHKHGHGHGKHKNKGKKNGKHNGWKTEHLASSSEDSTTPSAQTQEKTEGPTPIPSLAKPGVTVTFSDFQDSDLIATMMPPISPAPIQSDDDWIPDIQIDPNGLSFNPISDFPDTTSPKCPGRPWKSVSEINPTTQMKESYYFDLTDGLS
UniProt Q8IYS2: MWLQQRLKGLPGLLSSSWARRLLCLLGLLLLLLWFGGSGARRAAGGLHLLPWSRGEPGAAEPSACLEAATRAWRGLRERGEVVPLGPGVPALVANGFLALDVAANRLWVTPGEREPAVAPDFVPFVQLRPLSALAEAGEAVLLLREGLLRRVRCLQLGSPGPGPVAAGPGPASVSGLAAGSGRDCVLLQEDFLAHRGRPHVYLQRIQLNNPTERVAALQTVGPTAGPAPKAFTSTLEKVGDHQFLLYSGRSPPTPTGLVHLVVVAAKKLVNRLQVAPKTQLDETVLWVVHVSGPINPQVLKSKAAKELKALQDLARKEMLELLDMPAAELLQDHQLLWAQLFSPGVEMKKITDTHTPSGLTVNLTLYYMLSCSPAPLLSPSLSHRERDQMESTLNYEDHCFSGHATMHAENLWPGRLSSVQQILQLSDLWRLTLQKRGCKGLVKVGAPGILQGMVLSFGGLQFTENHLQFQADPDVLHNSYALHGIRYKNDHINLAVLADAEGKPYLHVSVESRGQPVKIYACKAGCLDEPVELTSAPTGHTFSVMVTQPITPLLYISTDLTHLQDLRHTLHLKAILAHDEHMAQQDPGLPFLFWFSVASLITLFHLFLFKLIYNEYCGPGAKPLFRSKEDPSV
UniProt Q9H1H9: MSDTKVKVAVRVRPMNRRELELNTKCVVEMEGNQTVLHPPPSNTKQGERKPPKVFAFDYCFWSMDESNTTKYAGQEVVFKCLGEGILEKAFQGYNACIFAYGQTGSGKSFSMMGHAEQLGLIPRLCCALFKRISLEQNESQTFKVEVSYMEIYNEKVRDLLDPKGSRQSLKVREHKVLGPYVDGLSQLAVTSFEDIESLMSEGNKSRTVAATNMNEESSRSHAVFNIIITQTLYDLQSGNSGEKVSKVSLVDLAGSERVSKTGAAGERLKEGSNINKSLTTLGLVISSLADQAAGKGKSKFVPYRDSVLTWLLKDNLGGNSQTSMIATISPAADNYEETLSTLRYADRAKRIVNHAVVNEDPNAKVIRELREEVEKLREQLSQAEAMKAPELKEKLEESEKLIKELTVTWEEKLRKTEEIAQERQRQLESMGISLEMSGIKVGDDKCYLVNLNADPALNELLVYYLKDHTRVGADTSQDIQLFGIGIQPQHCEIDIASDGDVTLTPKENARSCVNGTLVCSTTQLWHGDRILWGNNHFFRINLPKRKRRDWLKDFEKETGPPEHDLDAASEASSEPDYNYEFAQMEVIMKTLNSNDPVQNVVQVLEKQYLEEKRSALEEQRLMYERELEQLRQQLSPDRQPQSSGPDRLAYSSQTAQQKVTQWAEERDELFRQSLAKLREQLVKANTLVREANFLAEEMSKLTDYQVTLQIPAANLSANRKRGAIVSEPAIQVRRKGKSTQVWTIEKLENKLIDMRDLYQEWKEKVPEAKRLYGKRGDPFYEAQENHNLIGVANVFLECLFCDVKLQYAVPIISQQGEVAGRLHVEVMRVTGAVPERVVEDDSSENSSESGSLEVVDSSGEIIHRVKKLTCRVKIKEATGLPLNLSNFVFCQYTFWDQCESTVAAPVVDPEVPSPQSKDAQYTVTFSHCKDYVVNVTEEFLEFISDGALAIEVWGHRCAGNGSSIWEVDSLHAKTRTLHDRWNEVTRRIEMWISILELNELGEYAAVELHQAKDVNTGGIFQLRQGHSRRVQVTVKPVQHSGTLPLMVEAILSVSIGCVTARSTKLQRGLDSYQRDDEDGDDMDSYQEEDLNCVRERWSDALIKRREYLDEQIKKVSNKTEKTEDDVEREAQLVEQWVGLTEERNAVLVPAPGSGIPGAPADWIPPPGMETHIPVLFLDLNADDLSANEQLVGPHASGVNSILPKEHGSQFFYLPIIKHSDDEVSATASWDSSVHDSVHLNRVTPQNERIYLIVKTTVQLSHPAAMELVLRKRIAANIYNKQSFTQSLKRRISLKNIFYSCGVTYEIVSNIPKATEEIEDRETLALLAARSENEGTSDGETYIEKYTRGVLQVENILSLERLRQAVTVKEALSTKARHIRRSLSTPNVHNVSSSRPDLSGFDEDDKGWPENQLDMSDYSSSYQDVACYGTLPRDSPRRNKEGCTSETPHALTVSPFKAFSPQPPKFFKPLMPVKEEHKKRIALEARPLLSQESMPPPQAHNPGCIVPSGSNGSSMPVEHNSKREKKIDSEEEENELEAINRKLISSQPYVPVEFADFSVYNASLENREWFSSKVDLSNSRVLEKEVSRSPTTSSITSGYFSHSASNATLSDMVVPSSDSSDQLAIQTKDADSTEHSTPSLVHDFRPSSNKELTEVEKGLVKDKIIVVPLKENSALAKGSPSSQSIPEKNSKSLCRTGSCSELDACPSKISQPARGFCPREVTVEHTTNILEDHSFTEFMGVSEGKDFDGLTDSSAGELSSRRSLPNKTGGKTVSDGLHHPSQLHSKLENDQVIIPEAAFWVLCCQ
UniProt P57682: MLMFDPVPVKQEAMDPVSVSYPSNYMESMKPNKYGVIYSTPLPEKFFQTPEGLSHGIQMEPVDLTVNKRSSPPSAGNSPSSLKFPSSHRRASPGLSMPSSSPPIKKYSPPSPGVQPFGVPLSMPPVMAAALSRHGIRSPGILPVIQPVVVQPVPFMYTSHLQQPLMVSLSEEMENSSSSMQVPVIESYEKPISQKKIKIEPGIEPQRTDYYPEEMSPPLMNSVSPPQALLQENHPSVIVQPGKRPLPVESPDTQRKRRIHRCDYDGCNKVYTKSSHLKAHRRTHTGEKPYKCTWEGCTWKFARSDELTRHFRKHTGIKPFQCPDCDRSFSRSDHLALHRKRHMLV
UniProt Q8IXV7: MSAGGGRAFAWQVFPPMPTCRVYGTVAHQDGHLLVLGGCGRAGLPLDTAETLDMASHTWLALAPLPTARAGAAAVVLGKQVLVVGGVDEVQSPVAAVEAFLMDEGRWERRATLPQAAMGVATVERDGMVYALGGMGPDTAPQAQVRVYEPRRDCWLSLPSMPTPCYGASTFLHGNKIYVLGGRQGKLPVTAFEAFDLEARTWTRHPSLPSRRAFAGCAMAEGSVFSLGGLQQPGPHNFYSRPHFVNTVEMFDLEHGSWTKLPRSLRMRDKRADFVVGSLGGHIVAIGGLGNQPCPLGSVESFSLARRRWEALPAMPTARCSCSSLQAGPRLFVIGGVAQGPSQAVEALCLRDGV
UniProt Q8IXQ5, whole entry, looked up: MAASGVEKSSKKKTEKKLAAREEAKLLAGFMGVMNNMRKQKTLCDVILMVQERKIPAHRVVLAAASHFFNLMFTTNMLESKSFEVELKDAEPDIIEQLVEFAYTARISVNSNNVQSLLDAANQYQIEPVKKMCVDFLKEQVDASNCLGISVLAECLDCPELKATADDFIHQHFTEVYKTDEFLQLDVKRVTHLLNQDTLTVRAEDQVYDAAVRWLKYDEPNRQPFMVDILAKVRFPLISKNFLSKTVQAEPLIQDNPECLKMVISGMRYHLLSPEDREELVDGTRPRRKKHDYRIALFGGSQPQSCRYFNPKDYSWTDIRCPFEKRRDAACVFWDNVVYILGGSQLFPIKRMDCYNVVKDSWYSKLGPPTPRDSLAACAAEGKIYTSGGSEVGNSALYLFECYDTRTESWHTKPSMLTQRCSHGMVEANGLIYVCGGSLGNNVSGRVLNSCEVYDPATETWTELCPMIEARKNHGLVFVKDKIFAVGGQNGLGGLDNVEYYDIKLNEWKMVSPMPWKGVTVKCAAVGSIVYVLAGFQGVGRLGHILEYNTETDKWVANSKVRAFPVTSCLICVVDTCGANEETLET
UniProt P52294, whole entry, looked up: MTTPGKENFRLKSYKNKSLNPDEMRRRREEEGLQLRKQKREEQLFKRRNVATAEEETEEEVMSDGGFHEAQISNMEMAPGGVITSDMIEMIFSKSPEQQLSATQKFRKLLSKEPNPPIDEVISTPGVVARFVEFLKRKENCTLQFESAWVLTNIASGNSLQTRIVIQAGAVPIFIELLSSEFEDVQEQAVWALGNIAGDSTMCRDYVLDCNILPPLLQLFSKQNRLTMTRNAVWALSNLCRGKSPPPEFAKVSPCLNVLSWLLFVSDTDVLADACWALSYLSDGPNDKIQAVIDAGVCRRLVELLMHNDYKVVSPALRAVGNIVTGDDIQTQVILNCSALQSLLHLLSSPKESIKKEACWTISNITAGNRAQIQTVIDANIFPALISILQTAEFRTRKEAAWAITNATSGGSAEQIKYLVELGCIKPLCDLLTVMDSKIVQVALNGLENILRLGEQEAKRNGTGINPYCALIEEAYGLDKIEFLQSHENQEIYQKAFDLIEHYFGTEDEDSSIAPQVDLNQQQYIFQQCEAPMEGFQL
UniProt Q9H079: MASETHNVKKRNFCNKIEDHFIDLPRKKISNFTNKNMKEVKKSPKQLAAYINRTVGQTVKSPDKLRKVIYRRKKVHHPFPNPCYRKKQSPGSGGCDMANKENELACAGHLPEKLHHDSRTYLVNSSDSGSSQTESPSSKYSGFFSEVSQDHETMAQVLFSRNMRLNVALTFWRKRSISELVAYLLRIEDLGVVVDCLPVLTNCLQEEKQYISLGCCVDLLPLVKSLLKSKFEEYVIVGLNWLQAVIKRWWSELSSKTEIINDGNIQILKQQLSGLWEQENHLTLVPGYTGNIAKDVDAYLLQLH
UniProt Q8N371: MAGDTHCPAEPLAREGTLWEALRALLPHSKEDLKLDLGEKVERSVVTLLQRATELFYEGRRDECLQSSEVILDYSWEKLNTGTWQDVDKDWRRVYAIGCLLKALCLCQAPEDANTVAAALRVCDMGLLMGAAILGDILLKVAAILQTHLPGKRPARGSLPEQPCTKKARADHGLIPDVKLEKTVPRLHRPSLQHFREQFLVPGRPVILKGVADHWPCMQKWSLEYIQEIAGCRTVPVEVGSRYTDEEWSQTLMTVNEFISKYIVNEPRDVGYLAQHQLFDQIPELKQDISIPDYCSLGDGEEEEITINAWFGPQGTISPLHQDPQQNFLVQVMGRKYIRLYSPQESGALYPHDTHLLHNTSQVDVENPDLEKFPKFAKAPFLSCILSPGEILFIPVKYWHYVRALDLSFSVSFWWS
UniProt P33947: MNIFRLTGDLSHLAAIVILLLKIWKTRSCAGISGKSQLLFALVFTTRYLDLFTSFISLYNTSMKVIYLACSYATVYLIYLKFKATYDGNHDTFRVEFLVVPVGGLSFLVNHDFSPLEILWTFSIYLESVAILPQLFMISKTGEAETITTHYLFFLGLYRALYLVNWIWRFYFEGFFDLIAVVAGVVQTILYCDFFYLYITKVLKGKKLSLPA

What was measured:
Assay in all cases: log2 fold change, soluble protein after heating vs DMSO (PISA); higher = thermal stabilisation; K562 cells, 10 uM, 30 min; active = over 0.2 and 3.5 SD of the protein, either way, in both replicates (recomputed)
[1] = compound: CN1CCN(CCOc2cc(OC3CCOCC3)c3c(Nc4c(Cl)ccc5c4OCO5)ncnc3c2)CC1 [saracatinib]
How it was run: (§1)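 Soluble protein was defined as the supernatant after 21,000xg for 90 min. It came from K562 cells at 2×10^6 cells/mL given 10 μM compound for 30 min, heated in aliquots for 3 min across 48°C-58°C, pooled, and extracted in PBS with 0.5% NP-40 at 4°C, and was quantified by TMTpro 16plex LC-MS/MS with equalised channel sums. Thermal stability against control samples, from duplicates, is reported as log2 fold change.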

[2] = compound: CN1CCN(c2nc(C3=C(c4c[nH]c5ccccc45)C(=O)NC3=O)c3ccccc3n2)CC1 [sotrastaurin]
How it was run: as §1

[3] = compound: CN1CC[C@H](c2c(O)cc(O)c3c(=O)cc(-c4ccccc4Cl)oc23)[C@H](O)C1 [alvocidib]
How it was run: as §1

[4] = compound: CN1CCc2c(c3ccccc3n2Cc2ccc(C(=O)NO)cc2)C1 [Tubastatin A]
How it was run: as §1

[5] = compound: CNC(=O)C1=CC=CC=C1NC2=NC(=NC=C2Cl)NC3=C(C=C(C=C3)N4CCOCC4)OC
How it was run: as §1

[6] = compound: CNC(=O)c1ccc(Nc2ncc(C(F)(F)F)c(NCc3nccnc3N(C)S(C)(=O)=O)n2)cc1 [defactinib]
How it was run: as §1

[7] = compound: CNCc1ccc(-c2[nH]c3cc(F)cc4c3c2CCNC4=O)cc1 [rucaparib]
How it was run: as §1

[8] = compound: CNc1nc(-c2ccc3c(N)n[nH]c3c2)cc(N2C[C@@H](C(=O)NC3CCCCC3)CC[C@H]2C)n1
How it was run: as §1

[9] = compound: COC(=O)N[C@@H](C)CNc1nccc(-c2cn(C(C)C)nc2-c2cc(Cl)cc(NS(C)(=O)=O)c2F)n1 [encorafenib]
How it was run: as §1

[10] = compound: COC(=O)[C@H](CCSC)NC(=O)C1=C(C=C(C=C1)NC[C@H](CS)N)C2=CC=CC=C2
How it was run: as §1

Measured: log2 fold change

KDM5C (UniProt P41229)
inactive: [1] 0.086 | [2] -0.098 | [3] -0.097 | [4] -0.201 | [5] 0.123 | [6] -0.172 | [7] -0.009 | [8] -0.015 | [9] 0.151 | [10] -0.162

KIAA0100 (UniProt Q14667)
inactive: [1] -0.021 | [2] -0.007 | [3] -0.057 | [4] 0.212 | [5] -0.068 | [6] -0.076 | [7] 0.067 | [8] -0.014 | [9] -0.039 | [10] 0.007

KIF15 (UniProt Q9NS87)
inactive: [1] -0.15 | [2] -0.156 | [3] 0.025 | [4] 0.142 | [5] -0.106 | [6] 0.103 | [7] 0.485 | [8] 0.045 | [9] 0.281 | [10] -0.009

KCTD9 (UniProt Q7L273)
inactive: [1] -0.011 | [2] 0.006 | [3] -0.111 | [4] 0.061 | [5] -0.024 | [6] -0.023 | [7] -0.018 | [8] -0.061 | [9] -0.011 | [10] 0.001

KCTD15 (UniProt Q96SI1)
inactive: [1] 0.008 | [2] 0.122 | [3] 0.086 | [4] -0.05 | [5] -0.004 | [6] 0.015 | [7] -0.04 | [8] -0.045 | [9] -0.009 | [10] 0.018

KNG1 (UniProt P01042)
inactive: [1] 0.049 | [2] 0.22 | [3] 0.083 | [4] -0.16 | [5] 0.052 | [6] -0.023 | [7] -0.206 | [8] -0.008 | [9] -0.005 | [10] 0.104

KLC1 isoform 6 (UniProt Q07866)
inactive: [1] 0.027 | [2] -0.017 | [3] -0.019 | [4] -0.014 | [5] 0.028 | [6] -0.023 | [7] -0.037 | [8] -0.001 | [9] 0.026 | [10] -0.009

KHK isoform 2 (UniProt P50053)
inactive: [1] 0.026 | [2] 0.026 | [3] -0.006 | [4] -0.036 | [5] 0.016 | [6] 0.006 | [7] -0.053 | [8] -0.009 | [9] 0.04 | [10] 0.012

KDM2A (UniProt Q9Y2K7)
inactive: [1] 0.006 | [2] -0.168 | [3] -0.193 | [4] -0.014 | [5] 0.028 | [6] -0.097 | [7] -0.094 | [8] 0.063 | [9] 0.039 | [10] 0.034

KCTD3 (UniProt Q9Y597)
inactive: [1] -0.035 | [2] 0.039 | [3] 0.024 | [4] 0.032 | [5] 0.006 | [6] 0.004 | [7] 0.018 | [8] -0.019 | [9] -0.052 | [10] 0.049

KHDC4 (UniProt Q7Z7F0)
inactive: [1] -0.139 | [2] 0.027 | [4] 0.052 | [5] 0.019 | [6] -0.058 | [7] -0.058 | [8] 0.023 | [9] 0.008 | [10] -0.023

Three records drawn at random from those above:
KDM2A (UniProt Q9Y2K7)
inactive: [1] 0.006 | [2] -0.168 | [3] -0.193 | [4] -0.014 | [5] 0.028 | [6] -0.097 | [7] -0.094 | [8] 0.063 | [9] 0.039 | [10] 0.034

KLC1 isoform 6 (UniProt Q07866)
inactive: [1] 0.027 | [2] -0.017 | [3] -0.019 | [4] -0.014 | [5] 0.028 | [6] -0.023 | [7] -0.037 | [8] -0.001 | [9] 0.026 | [10] -0.009

KNG1 (UniProt P01042)
inactive: [1] 0.049 | [2] 0.22 | [3] 0.083 | [4] -0.16 | [5] 0.052 | [6] -0.023 | [7] -0.206 | [8] -0.008 | [9] -0.005 | [10] 0.104

More records:

KSR1 (UniProt Q8IVT5)
inactive: [1] -0.229 | [2] -0.149 | [4] 0.054 | [5] -0.061 | [6] -0.073 | [7] -0.044 | [8] 0.038 | [9] 0.081 | [10] 0.012

KIAA2013 isoform 2 (UniProt Q8IYS2)
inactive: [1] 0.072 | [2] 0.067 | [3] 0.049 | [4] -0.003 | [5] -0.016 | [6] -0.011 | [7] -0.04 | [8] 0.003 | [9] -0.044 | [10] 0.026

KIF13A (UniProt Q9H1H9)
inactive: [1] 0.063 | [2] 0.041 | [4] 0.028 | [5] 0.1 | [6] -0.026 | [7] 0.008 | [8] -0.093 | [9] -0.025 | [10] 0.034

IVNS1ABP (UniProt Q9Y6Y0)
inactive: [1] -0.101 | [2] -0.054 | [3] -0.009 | [4] 0.033 | [5] -0.069 | [6] -0.049 | [7] 0.043 | [8] 0.084 | [9] 0.026 | [10] -0.023

KLF3 (UniProt P57682)
inactive: [1] -0.076 | [2] 0.082 | [3] -0.03 | [4] 0.002 | [5] 0.135 | [6] 0.04 | [8] -0.004 | [10] -0.006

KLHDC8B (UniProt Q8IXV7)
inactive: [1] 0.171 | [2] 0.06 | [3] -0.147 | [4] 0.042 | [5] -0.093 | [6] 0.122 | [8] -0.057 | [10] 0.151

KLHL7 (UniProt Q8IXQ5)
inactive: [1] 0.108 | [2] -0.002 | [3] -0.138 | [5] 0.024 | [6] -0.064 | [8] -0.176 | [10] 0.049

KRIT1 (UniProt O00522)
inactive: [1] 0.071 | [2] -0.146 | [3] -0.067 | [5] -0.042 | [6] -0.057 | [8] 0.129 | [10] -0.201

KIF13B (UniProt Q9NQT8)
inactive: [1] 0.119 | [2] 0.097 | [3] -0.064 | [4] 0.016 | [5] 0.17 | [7] 0.199 | [8] -0.151 | [9] 0.049

JAG2 (UniProt Q9Y219)
inactive: [1] -0.17 | [2] -0.147 | [3] 0.002 | [4] 0.085 | [5] -0.043 | [6] 0.048 | [8] 0.037 | [10] -0.111

KCTD2 (UniProt Q14681)
inactive: [1] -0.276 | [2] 0.226 | [4] 0.015 | [5] -0.076 | [6] 0.038 | [7] 0.066 | [8] -0.243 | [9] -0.128 | [10] 0.082

KPNA1 (UniProt P52294)
inactive: [1] -0.014 | [2] -0.174 | [4] 0.021 | [5] 0.006 | [6] -0.064 | [7] 0.151 | [8] -0.078 | [9] 0.197 | [10] 0

JUND (UniProt P17535)
inactive: [1] 0.031 | [2] 0.013 | [3] 0.027 | [4] 0.005 | [5] -0.022 | [6] -0.021 | [7] -0.033 | [8] -0.037 | [9] 0.023 | [10] -0.05

KLHDC4 (UniProt Q8TBB5)
inactive: [1] -0.006 | [2] -0.037 | [4] -0.072 | [5] 0.02 | [6] 0.021 | [7] 0.115 | [8] -0.029 | [9] 0.106 | [10] -0.066

KPNA3 (UniProt O00505)
inactive: [1] 0.003 | [2] -0.068 | [3] -0.122 | [4] 0.025 | [5] -0.011 | [6] -0.051 | [7] -0.015 | [8] -0.138 | [9] 0.005 | [10] 0.041

KATNBL1 (UniProt Q9H079)
inactive: [1] 0.126 | [2] -0.114 | [3] -0.038 | [4] -0.018 | [6] 0.109 | [7] 0.218 | [8] -0.18 | [9] 0.072 | [10] 0.003

KLF16 (UniProt Q9BXK1)
inactive: [1] -0.004 | [2] -0.17 | [4] 0.111 | [5] -0.088 | [6] 0.005 | [7] -0.017 | [8] -0.098 | [9] 0.041 | [10] 0.212

KDM8 isoform 3 (UniProt Q8N371)
inactive: [1] 0.065 | [2] 0.023 | [3] -0.138 | [4] 0.021 | [5] -0.045 | [6] 0.035 | [7] 0.008 | [8] -0.064 | [9] 0.016 | [10] 0.009

KDELR2 (UniProt P33947)
inactive: [1] 0.094 | [2] 0.061 | [4] -0.295 | [5] 0.04 | [6] -0.004 | [7] -0.072 | [8] -0.058 | [9] -0.005 | [10] 0.023

KCNK1 (UniProt O00180)
inactive: [1] -0.353 | [2] 0.024 | [3] 0.136 | [5] 0.093 | [7] 0.16 | [8] 0 | [9] -0.182

KLHDC3 (UniProt Q9BQ90)
inactive: [1] -0.093 | [2] -0.031 | [3] -0.069 | [4] 0.034 | [5] -0.01 | [6] -0.012 | [7] 0.063 | [8] -0.037 | [9] -0.041 | [10] -0.046
